{"source": "paper PMC12856970", "about": "(Clinical Pharmacology in Drug Development, 2025)", "key": {"[1]": {"tested_on": "cytochrome P450 3A4 (CYP3A4)", "settings": "cited from earlier work"}, "[2]": {"tested_on": "P‐glycoprotein (P‐gp)", "settings": "liver; cited from earlier work"}, "[3]": {"assay": "Phase 1 DDI study: plasma PK of atorvastatin and its metabolites after atorvastatin alone or with steady-state asciminib (LC-MS/MS, non-compartmental)", "settings": "for Cmax: human"}, "[4]": {"settings": "atorvastatin 20 mg single dose + asciminib 80 mg QD at steady state (day 9), plasma"}, "[5]": {"settings": "atorvastatin 20 mg single oral dose alone (day 1), plasma"}, "[6]": {"settings": "atorvastatin + asciminib 80 mg QD steady state, linear mixed-effects model, back-transformed"}, "[7]": {"settings": "atorvastatin + steady-state asciminib 80 mg QD versus atorvastatin alone"}, "[8]": {"settings": "atorvastatin alone, linear mixed-effects model, back-transformed"}}}
{"smiles": "CC(C)c1c(C(=O)Nc2ccccc2)c(-c2ccccc2)c(-c2ccc(F)cc2)n1CC[C@@H](O)C[C@@H](O)CC(=O)O", "note": "[Atorvastatin, reference compound]", "values": [{"measurement": "Fraction metabolized by CYP3A4", "setting": "[1]", "value": "Over 85%"}, {"measurement": "Contribution of P‐gp to total efflux", "setting": "[2]", "value": 66, "unit": "%"}, {"measurement": "AUCinf, Gmean (GCV%)", "setting": "[3]; [4]", "value": "39.2 (39.6) ng x h/mL"}, {"measurement": "AUCinf, Mean (SD)", "setting": "[3]; [4]", "value": "42.0 (16.4) ng x h/mL"}, {"measurement": "AUCinf, Median (min, max)", "setting": "[3]; [4]", "value": "40.6 (20.4, 82.6) ng x h/mL"}, {"measurement": "AUClast, Gmean (GCV%)", "setting": "[3]; [4]", "value": "36.8 (40.7) ng x h/mL"}, {"measurement": "AUClast, Mean (SD)", "setting": "[3]; [4]", "value": "39.6 (15.8) ng x h/mL"}, {"measurement": "AUClast, Median (min, max)", "setting": "[3]; [4]", "value": "38.8 (18.7, 80.0) ng x h/mL"}, {"measurement": "Cmax, Gmean (GCV%)", "setting": "[3]; [4]", "value": "6.45 (66.2) ng/mL"}, {"measurement": "AUCinf, Gmean (GCV%)", "setting": "[3]; [5]", "value": "33.9 (38.0) ng x h/mL"}, {"measurement": "AUCinf, Mean (SD)", "setting": "[3]; [5]", "value": "36.3 (15.4) ng x h/mL"}, {"measurement": "AUCinf, Median (min, max)", "setting": "[3]; [5]", "value": "34.4 (19.2, 81.6) ng x h/mL"}, {"measurement": "AUClast, Gmean (GCV%)", "setting": "[3]; [5]", "value": "31.5 (40.1) ng x h/mL"}, {"measurement": "AUClast, Mean (SD)", "setting": "[3]; [5]", "value": "34.1 (15.5) ng x h/mL"}, {"measurement": "AUClast, Median (min, max)", "setting": "[3]; [5]", "value": "30.6 (18.0, 80.1) ng x h/mL"}, {"measurement": "AUCinf, Adjusted Gmean", "setting": "[3]; [6]", "value": 38.8, "unit": "ng x h/mL"}, {"measurement": "AUClast, Adjusted Gmean", "setting": "[3]; [6]", "value": 36.5, "unit": "ng x h/mL"}, {"measurement": "Time post-dose at which mean Cmax was observed (mean concentration-time profile)", "setting": "[3]; atorvastatin + asciminib at steady state", "value": 0.5, "unit": "h"}, {"measurement": "Increase of adjusted Gmean of AUCinf by asciminib", "setting": "[3]; [7]", "value": 14, "unit": "%"}, {"measurement": "Increase of adjusted Gmean of AUClast by asciminib", "setting": "[3]; [7]", "value": 16, "unit": "%"}, {"measurement": "Increase of adjusted Gmean of Cmax by asciminib", "setting": "[3]; [7]", "value": 24, "unit": "%"}, {"measurement": "Time post-dose at which mean Cmax was observed (mean concentration-time profile)", "setting": "[3]; atorvastatin alone", "value": 1, "unit": "h"}, {"measurement": "AUCinf, Adjusted Gmean", "setting": "[3]; [8]", "value": 33.9, "unit": "ng x h/mL"}, {"measurement": "AUClast, Adjusted Gmean", "setting": "[3]; [8]", "value": 31.5, "unit": "ng x h/mL"}, {"measurement": "Cmax", "setting": "[3]; plasma, oral, 20 mg, Adjusted Gmean, atorvastatin alone, linear mixed-effects model, back-transformed", "value": 5.29, "unit": "ng/mL"}, {"measurement": "Cmax", "setting": "[3]; plasma, oral, Median (min, max), atorvastatin 20 mg single dose + asciminib 80 mg QD at steady state (day 9), plasma", "value": 7.71, "unit": "ng/mL"}, {"measurement": "Cmax", "setting": "[3]; plasma, po, 20 mg, Gmean (GCV%), atorvastatin 20 mg single oral dose alone (day 1), plasma", "value": 5.29, "unit": "ng/mL"}, {"measurement": "Cmax", "setting": "[3]; plasma, po, 20 mg, Mean (SD), atorvastatin 20 mg single oral dose alone (day 1), plasma", "value": 5.84, "unit": "ng/mL"}, {"measurement": "Cmax", "setting": "[3]; plasma, po, 20 mg, Median (min, max), atorvastatin 20 mg single oral dose alone (day 1), plasma", "value": 4.66, "unit": "ng/mL"}]}
